Test results as given in the supplement of paper PMC10849652.
The other results are listed elsewhere or left out.

Amino acid sequences for entries named in this document (tags omitted). A change or cut given only in a name is not applied to a line headed by its entry.
UniProt Q96ME1: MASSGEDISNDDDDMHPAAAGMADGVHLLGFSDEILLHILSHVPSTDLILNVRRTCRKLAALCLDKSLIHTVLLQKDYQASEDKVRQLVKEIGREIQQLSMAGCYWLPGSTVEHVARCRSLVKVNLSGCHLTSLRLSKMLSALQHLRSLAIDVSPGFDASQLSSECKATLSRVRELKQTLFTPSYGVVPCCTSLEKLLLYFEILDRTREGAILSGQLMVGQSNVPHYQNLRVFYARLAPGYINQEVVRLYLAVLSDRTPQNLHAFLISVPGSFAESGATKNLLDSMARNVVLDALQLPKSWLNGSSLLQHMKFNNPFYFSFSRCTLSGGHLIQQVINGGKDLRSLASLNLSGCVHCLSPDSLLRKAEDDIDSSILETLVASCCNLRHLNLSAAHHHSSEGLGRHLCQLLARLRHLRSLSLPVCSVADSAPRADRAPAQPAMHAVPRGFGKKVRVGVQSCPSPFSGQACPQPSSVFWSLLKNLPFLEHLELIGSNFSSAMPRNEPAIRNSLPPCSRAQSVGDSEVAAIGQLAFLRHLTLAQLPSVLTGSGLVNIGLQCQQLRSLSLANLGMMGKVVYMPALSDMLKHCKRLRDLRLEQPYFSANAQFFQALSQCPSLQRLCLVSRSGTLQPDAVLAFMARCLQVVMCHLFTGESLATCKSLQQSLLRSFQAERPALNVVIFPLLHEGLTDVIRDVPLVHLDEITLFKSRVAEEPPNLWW
UniProt Q9NXK8: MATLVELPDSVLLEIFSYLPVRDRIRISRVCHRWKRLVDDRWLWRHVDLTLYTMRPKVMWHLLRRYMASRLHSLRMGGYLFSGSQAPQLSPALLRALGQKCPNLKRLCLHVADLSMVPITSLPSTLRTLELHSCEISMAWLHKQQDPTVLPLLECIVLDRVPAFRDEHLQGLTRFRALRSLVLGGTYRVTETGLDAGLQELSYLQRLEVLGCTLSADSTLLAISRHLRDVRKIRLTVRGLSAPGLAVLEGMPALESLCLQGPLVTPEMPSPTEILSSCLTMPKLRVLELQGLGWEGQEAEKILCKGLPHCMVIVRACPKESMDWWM
UniProt P12318: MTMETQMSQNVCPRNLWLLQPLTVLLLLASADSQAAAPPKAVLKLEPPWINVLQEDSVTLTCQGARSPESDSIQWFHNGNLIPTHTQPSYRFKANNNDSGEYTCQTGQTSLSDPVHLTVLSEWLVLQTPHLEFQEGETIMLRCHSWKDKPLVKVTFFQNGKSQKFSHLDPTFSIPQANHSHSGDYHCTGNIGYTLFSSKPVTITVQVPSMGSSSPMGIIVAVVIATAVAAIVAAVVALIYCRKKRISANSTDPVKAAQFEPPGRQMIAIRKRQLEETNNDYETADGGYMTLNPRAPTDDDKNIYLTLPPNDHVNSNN
UniProt Q9H4M3: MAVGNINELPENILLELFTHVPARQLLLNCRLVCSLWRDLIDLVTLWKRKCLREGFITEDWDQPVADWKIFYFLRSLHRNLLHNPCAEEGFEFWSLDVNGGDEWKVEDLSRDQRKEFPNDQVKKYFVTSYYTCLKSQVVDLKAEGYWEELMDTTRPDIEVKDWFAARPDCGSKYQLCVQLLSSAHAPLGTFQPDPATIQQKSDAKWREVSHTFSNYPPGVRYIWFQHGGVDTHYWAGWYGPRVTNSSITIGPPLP
UniProt Q9UKT8: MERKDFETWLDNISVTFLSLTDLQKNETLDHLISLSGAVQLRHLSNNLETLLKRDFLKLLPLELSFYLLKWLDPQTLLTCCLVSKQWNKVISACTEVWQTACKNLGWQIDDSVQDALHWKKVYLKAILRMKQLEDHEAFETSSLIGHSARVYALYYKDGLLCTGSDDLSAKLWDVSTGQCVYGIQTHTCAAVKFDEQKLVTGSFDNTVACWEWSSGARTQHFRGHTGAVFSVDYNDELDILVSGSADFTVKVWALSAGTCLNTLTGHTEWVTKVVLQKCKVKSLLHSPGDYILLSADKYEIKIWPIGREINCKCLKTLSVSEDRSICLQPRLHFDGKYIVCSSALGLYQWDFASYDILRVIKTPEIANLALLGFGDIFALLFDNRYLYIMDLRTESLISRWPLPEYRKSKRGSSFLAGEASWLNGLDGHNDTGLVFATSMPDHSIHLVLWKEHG
UniProt Q13045: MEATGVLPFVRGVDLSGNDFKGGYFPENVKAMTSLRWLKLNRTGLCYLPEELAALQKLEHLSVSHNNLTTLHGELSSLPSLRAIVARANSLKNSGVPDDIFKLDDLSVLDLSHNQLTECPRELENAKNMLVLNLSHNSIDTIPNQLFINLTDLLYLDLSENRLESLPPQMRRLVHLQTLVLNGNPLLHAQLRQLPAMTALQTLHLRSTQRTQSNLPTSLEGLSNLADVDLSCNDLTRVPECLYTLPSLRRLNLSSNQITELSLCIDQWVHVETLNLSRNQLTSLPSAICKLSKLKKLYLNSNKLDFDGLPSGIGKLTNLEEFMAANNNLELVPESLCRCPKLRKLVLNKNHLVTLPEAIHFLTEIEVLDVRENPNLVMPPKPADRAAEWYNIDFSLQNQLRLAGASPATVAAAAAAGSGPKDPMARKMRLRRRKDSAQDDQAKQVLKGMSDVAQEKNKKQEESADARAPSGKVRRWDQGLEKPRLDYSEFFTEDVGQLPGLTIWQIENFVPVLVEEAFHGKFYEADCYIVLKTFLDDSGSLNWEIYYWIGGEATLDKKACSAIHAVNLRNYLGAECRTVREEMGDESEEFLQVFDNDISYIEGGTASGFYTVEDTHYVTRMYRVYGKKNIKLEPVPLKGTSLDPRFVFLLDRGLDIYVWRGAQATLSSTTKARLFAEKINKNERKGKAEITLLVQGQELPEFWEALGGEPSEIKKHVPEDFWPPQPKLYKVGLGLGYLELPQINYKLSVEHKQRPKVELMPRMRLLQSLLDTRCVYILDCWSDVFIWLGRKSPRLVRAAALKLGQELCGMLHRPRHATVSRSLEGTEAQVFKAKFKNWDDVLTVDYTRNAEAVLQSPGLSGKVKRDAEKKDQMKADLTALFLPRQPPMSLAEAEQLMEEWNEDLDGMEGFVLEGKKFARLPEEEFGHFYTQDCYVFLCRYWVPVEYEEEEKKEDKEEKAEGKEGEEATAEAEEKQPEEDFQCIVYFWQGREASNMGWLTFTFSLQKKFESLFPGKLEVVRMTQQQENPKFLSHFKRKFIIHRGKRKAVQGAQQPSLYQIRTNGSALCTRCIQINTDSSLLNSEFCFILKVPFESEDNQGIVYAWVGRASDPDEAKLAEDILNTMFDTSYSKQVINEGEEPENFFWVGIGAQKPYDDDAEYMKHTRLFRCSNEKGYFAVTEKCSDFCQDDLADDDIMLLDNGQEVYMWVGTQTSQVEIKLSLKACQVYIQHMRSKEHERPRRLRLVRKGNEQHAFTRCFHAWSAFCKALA
UniProt B1AJZ9: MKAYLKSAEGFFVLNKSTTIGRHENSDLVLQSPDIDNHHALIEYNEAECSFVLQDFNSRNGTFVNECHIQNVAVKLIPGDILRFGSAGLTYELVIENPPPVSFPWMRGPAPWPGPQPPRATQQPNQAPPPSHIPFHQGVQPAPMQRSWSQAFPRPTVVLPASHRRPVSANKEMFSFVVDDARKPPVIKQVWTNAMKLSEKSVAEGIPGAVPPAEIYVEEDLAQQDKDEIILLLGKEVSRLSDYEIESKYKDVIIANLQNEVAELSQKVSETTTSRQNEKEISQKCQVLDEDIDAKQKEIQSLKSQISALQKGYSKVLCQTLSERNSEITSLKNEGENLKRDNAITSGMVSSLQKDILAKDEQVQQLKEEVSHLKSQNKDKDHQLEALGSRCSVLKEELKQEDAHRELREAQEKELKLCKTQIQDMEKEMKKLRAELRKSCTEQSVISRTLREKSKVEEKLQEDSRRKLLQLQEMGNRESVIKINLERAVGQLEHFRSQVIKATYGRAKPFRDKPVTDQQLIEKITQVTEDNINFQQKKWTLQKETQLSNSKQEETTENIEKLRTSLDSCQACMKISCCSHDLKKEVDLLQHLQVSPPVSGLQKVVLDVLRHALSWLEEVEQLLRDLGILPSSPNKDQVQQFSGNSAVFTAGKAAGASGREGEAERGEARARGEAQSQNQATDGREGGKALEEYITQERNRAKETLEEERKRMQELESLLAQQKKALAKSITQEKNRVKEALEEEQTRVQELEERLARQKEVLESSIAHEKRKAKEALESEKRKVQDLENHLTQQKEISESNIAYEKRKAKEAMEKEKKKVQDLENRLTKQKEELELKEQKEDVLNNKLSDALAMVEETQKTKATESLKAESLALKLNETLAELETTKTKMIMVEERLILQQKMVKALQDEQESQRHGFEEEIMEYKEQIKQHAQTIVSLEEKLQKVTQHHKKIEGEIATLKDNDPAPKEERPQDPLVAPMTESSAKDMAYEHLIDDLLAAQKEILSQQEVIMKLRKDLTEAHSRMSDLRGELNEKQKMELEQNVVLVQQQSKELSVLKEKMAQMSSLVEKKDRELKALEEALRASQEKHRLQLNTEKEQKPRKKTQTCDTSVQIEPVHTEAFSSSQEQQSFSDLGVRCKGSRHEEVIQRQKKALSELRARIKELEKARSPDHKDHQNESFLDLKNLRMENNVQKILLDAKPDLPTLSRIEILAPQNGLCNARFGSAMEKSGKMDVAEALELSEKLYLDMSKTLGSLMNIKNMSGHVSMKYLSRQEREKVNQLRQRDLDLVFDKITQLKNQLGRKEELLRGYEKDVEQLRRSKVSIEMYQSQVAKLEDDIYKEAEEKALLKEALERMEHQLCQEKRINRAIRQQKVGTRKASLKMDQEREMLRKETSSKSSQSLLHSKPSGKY
UniProt Q9UKB1: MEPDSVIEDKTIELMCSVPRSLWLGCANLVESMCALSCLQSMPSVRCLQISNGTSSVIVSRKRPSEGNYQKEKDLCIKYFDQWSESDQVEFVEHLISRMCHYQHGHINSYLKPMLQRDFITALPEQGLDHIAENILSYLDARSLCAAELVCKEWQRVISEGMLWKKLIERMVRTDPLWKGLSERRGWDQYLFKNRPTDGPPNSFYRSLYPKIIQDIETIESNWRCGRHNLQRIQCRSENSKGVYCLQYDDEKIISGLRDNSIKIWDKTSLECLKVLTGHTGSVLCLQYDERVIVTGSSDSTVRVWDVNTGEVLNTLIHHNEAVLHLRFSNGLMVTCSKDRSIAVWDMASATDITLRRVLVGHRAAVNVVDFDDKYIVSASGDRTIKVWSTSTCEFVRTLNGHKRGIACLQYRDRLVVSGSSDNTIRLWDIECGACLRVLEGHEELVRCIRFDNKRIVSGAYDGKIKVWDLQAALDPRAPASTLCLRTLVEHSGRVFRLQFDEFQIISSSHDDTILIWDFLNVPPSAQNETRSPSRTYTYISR
UniProt Q6PJ61: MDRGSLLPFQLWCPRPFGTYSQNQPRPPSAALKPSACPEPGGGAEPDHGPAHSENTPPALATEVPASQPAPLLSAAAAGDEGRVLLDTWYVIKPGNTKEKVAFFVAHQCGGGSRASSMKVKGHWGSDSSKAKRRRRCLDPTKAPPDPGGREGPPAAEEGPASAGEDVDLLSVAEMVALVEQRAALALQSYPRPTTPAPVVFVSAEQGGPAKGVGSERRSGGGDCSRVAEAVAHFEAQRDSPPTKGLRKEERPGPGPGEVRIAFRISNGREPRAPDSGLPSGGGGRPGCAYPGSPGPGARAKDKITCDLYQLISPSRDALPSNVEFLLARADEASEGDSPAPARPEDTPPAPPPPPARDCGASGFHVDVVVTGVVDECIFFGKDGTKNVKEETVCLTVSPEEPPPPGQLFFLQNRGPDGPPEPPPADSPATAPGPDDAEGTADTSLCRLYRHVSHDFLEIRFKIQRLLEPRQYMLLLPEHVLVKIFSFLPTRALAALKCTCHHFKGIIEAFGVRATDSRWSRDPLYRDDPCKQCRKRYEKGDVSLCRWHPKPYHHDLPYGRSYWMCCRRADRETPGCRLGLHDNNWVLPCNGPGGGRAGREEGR
UniProt P23142: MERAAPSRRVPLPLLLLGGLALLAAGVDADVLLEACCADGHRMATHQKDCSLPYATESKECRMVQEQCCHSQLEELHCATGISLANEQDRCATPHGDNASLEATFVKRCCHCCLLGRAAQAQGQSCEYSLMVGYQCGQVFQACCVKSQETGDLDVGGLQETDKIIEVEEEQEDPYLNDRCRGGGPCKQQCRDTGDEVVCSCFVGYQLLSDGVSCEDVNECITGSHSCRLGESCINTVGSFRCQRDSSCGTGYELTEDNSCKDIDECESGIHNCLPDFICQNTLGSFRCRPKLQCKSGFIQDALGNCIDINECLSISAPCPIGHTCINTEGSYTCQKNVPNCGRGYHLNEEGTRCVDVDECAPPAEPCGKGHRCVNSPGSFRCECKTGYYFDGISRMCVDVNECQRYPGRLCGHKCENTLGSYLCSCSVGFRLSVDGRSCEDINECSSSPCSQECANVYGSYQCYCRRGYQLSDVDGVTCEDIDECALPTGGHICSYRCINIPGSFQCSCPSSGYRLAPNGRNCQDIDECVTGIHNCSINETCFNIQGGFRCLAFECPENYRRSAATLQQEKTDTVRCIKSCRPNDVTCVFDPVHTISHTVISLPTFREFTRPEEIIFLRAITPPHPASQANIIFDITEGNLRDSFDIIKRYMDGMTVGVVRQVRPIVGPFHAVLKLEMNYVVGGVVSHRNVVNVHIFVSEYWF

Assays:
Assay in all cases: log2 fold change, soluble protein after heating vs DMSO (PISA); higher = thermal stabilisation; K562 lysate, 10 uM; active = over 0.2 and 3.5 SD of the protein, either way, in both replicates (recomputed)
vemurafenib = compound: CCCS(=O)(=O)Nc1ccc(F)c(C(=O)c2c[nH]c3ncc(-c4ccc(Cl)cc4)cc23)c1F [vemurafenib]
Summary of the method: (§1)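 Dounce homogenisation of K562 pellets in PBS pH 7.4 with 1 mM MgCl2 produced a crude extract, used at 1 mg/mL protein. Exposure to 10 μM compound lasted 30 min, and aliquots were then heated for 3 min across 48°C-58°C, pooled and brought to 0.5% NP-40 at 4°C. The supernatant after 21,000xg for 90 min was quantified by TMTpro 16plex LC-MS/MS with channel sums equalised. Duplicate values are given as log-two fold change in thermal stability relative to solvent controls.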

[1] = compound: CCCS(=O)(=O)Nc1ccc(F)c(C(=O)c2c[nH]c3ncc(Cl)cc23)c1F
Summary of the method: as §1

barasertib = compound: CCN(CCCOc1ccc2c(Nc3cc(CC(=O)Nc4cccc(F)c4)[nH]n3)ncnc2c1)CCOP(=O)(O)O [barasertib]
Summary of the method: as §1

[2] = compound: CC[C@@H]1C(=O)N(C)c2cnc(Nc3ccc(C(=O)NC4CCN(C)CC4)cc3OC)nc2N1C1CCCC1
Summary of the method: as §1

volasertib = compound: CC[C@@H]1C(=O)N(C)c2cnc(Nc3ccc(C(=O)N[C@H]4CC[C@H](N5CCN(CC6CC6)CC5)CC4)cc3OC)nc2N1C(C)C [volasertib]
Summary of the method: as §1

[3] = compound: CCn1c(C(=O)N(C2CC2)C2CC2)cc2c3c(ncn3C)c(Nc3cc(C)n(C)n3)nc21
Summary of the method: as §1

[4] = compound: CCn1cc(-c2ccnc3[nH]c(-c4cccc(CN(C)C)c4)cc23)c(-c2ccc(NC(=O)N(C)C)cc2)n1
Summary of the method: as §1

[5] = compound: CN1CCC(CNc2ccc3ncc(-c4cccc(OC(F)(F)F)c4)n3n2)CC1
Summary of the method: as §1

saracatinib = compound: CN1CCN(CCOc2cc(OC3CCOCC3)c3c(Nc4c(Cl)ccc5c4OCO5)ncnc3c2)CC1 [saracatinib]
Summary of the method: as §1

sotrastaurin = compound: CN1CCN(c2nc(C3=C(c4c[nH]c5ccccc45)C(=O)NC3=O)c3ccccc3n2)CC1 [sotrastaurin]
Summary of the method: as §1

alvocidib = compound: CN1CC[C@H](c2c(O)cc(O)c3c(=O)cc(-c4ccccc4Cl)oc23)[C@H](O)C1 [alvocidib]
Summary of the method: as §1

Tubastatin A = compound: CN1CCc2c(c3ccccc3n2Cc2ccc(C(=O)NO)cc2)C1 [Tubastatin A]
Summary of the method: as §1

[6] = compound: CNC(=O)C1=CC=CC=C1NC2=NC(=NC=C2Cl)NC3=C(C=C(C=C3)N4CCOCC4)OC
Summary of the method: as §1

defactinib = compound: CNC(=O)c1ccc(Nc2ncc(C(F)(F)F)c(NCc3nccnc3N(C)S(C)(=O)=O)n2)cc1 [defactinib]
Summary of the method: as §1

[7] = compound: CNc1nc(-c2ccc3c(N)n[nH]c3c2)cc(N2C[C@@H](C(=O)NC3CCCCC3)CC[C@H]2C)n1
Summary of the method: as §1

encorafenib = compound: COC(=O)N[C@@H](C)CNc1nccc(-c2cn(C(C)C)nc2-c2cc(Cl)cc(NS(C)(=O)=O)c2F)n1 [encorafenib]
Summary of the method: as §1

[8] = compound: COC(=O)[C@H](CCSC)NC(=O)C1=C(C=C(C=C1)NC[C@H](CS)N)C2=CC=CC=C2
Summary of the method: as §1

alisertib = compound: COc1cc(Nc2ncc3c(n2)-c2ccc(Cl)cc2C(c2c(F)cccc2OC)=NC3)ccc1C(=O)O [alisertib]
Summary of the method: as §1

[9] = compound: COc1cc2nc(-c3cc(F)ccc3O)nc(N[C@@H]3CNC[C@H]3C(C)(C)O)c2cc1OC
Summary of the method: as §1

gefitinib = compound: COc1cc2ncnc(Nc3ccc(F)c(Cl)c3)c2cc1OCCCN1CCOCC1 [gefitinib]
Summary of the method: as §1

Measured: log2 fold change

FBXL18 isoform 4 (UniProt Q96ME1)
inactive: vemurafenib 0.012 | [1] 0.017 | barasertib 0.031 | [2] -0.013 | volasertib -0.011 | [3] -0.012 | [4] -0.072 | [5] 0.033 | saracatinib -0.006 | sotrastaurin -0.014 | alvocidib 0.007 | Tubastatin A 0.02 | [6] 0.02 | defactinib 0.008 | [7] -0.024 | encorafenib -0.005 | [8] -0.049 | alisertib -0.001 | [9] 0 | gefitinib 0.024

FBXL12 (UniProt Q9NXK8)
inactive: vemurafenib -0.003 | [1] -0.01 | barasertib 0.049 | [2] -0.062 | volasertib -0.041 | [3] -0.086 | [4] -0.023 | [5] 0 | saracatinib 0.006 | sotrastaurin 0.056 | alvocidib -0.004 | Tubastatin A 0.078 | [6] -0.014 | defactinib 0.022 | [7] 0.074 | encorafenib 0.057 | [8] 0.055 | alisertib 0.031 | [9] 0.061 | gefitinib -0.016

FBXO30 (UniProt Q8TB52)
inactive: vemurafenib -0.065 | [1] 0.02 | barasertib 0.015 | [2] -0.026 | volasertib -0.042 | [3] 0.009 | [4] 0.208 | [5] -0.115 | saracatinib -0.015 | sotrastaurin -0.013 | alvocidib 0.066 | Tubastatin A -0.106 | [6] 0.03 | defactinib 0.042 | [7] -0.091 | encorafenib 0.036 | [8] 0.1 | alisertib -0.014 | [9] -0.006 | gefitinib 0.029

FCGR2A (UniProt P12318)
inactive: vemurafenib 0 | [1] -0.009 | barasertib 0.016 | [2] -0.006 | volasertib 0.015 | [3] -0.02 | [4] -0.052 | [5] 0.064 | saracatinib -0.002 | sotrastaurin 0.021 | alvocidib -0.05 | Tubastatin A 0.062 | [6] -0.029 | defactinib -0.023 | [7] -0.075 | encorafenib -0.055 | [8] -0.023 | alisertib 0.007 | [9] 0.065 | gefitinib -0.039

FKBP3 (UniProt Q00688)
inactive: vemurafenib 0.027 | [1] 0.005 | barasertib -0.039 | [2] 0.062 | volasertib 0.028 | [3] -0.015 | [4] -0.02 | [5] 0.02 | saracatinib -0.007 | sotrastaurin -0.018 | alvocidib 0.017 | Tubastatin A 0.018 | [6] -0.011 | defactinib -0.021 | [7] 0.047 | encorafenib -0.023 | [8] -0.066 | alisertib -0.006 | [9] 0.008 | gefitinib -0.053

FBXO44 isoform 2 (UniProt Q9H4M3)
inactive: vemurafenib 0.14 | [1] 0.066 | barasertib 0.054 | volasertib 0.003 | [3] -0.066 | [4] -0.031 | [5] 0.034 | saracatinib 0.215 | alvocidib -0.03 | Tubastatin A 0.046 | [6] -0.106 | defactinib 0.024 | [7] 0.059 | alisertib 0.38 | [9] -0.069 | gefitinib 0.086

FBXW2 (UniProt Q9UKT8)
inactive: vemurafenib -0.065 | barasertib -0.039 | [3] 0.012 | [4] -0.026 | [5] 0.002 | saracatinib -0.087 | sotrastaurin 0.102 | alvocidib -0.047 | Tubastatin A 0.043 | defactinib 0.094 | [7] -0.139

FLII isoform 2 (UniProt Q13045)
inactive: vemurafenib 0.111 | [1] 0.049 | [2] -0.058 | volasertib -0.045 | defactinib -0.045 | encorafenib -0.028 | [8] 0.285 | [9] -0.026

FAM83H (UniProt Q6ZRV2)
inactive: vemurafenib 0.176 | [1] -0.107 | [2] 0.047 | volasertib -0.08 | [4] -0.014 | [5] 0.047 | alvocidib -0.003 | defactinib -0.18 | encorafenib -0.127 | [8] -0.016 | [9] -0.12

FHAD1 isoform 3 (UniProt B1AJZ9)
inactive: vemurafenib 0.266 | [1] 0.06 | [2] 0.408 | volasertib 0.038 | [3] -0.252 | saracatinib 0.066 | Tubastatin A 0.192 | [6] -0.017 | defactinib -0.112 | [7] 0.118 | encorafenib -0.142 | [8] 0.019 | [9] 0.153

FBRS (UniProt J3KNZ9)
inactive: vemurafenib -0.001 | barasertib 0.018 | [2] 0.077 | [3] 0.042 | [4] 0.073 | [5] 0.098 | saracatinib 0.026 | sotrastaurin 0.098 | alvocidib -0.081 | Tubastatin A -0.009 | [6] 0.073 | defactinib -0.029 | [7] -0.027 | encorafenib -0.04 | [8] 0.009 | alisertib -0.078 | gefitinib 0.084

FBXW11 (UniProt Q9UKB1)
inactive: [1] 0.08 | barasertib 0.133 | [2] -0.06 | volasertib -0.117 | [3] -0.02 | [4] -0.086 | [5] -0.095 | saracatinib -0.01 | sotrastaurin 0.073 | alvocidib -0.08 | Tubastatin A 0.044 | [6] 0.171 | [7] -0.083 | encorafenib 0.07 | [8] 0.071 | [9] -0.144

FLNA (UniProt H0Y5C6)
inactive: vemurafenib -0.198 | [1] -0.004 | volasertib -0.095 | saracatinib 0.034 | [6] 0.003 | defactinib -0.187 | [7] 0.148 | [9] -0.059

FEM1A (UniProt Q9BSK4)
inactive: vemurafenib 0.071 | [1] -0.002 | [2] -0.398 | volasertib 0.011 | [3] 0.175 | Tubastatin A -0.127 | [6] -0.025 | defactinib -0.057 | encorafenib -0.122 | [8] 0.003 | alisertib 0.087 | [9] 0.021 | gefitinib 0.143

FAT2 (UniProt Q9NYQ8)
inactive: vemurafenib 0.213 | [1] 0.19 | barasertib -0.001 | [2] 0.016 | volasertib -0.097 | [3] 0.089 | [4] -0.487 | [5] 0.248 | sotrastaurin 0.125 | alvocidib -0.214 | Tubastatin A -0.083 | [6] -0.123 | defactinib -0.034 | encorafenib -0.092 | [8] 0.104 | alisertib -0.023 | [9] 0.043 | gefitinib 0.013

FARP2 (UniProt H7C3M7)
inactive: vemurafenib 0.094 | [2] -0.007 | [3] -0.043 | [4] 0.136 | [5] -0.063 | saracatinib 0.101 | sotrastaurin -0.046 | alvocidib -0.001 | Tubastatin A -0.262 | [6] 0.035 | defactinib -0.177 | [7] 0.036 | encorafenib -0.134 | [8] 0.128 | alisertib -0.033 | gefitinib 0.044

FBXO46 (UniProt Q6PJ61)
inactive: vemurafenib -0.034 | [1] 0.051 | barasertib 0.068 | [2] 0.031 | volasertib -0.024 | [3] 0.022 | [4] -0.027 | [5] 0.073 | saracatinib -0.009 | sotrastaurin -0.011 | alvocidib 0.017 | Tubastatin A -0.073 | defactinib -0.078 | [7] -0.076 | encorafenib 0.045 | [8] 0.089 | alisertib 0.033 | [9] 0.071 | gefitinib -0.034

FBLN1 (UniProt P23142)
inactive: vemurafenib 0.056 | barasertib 0.029 | [3] 0.032 | [4] 0.028 | [5] 0.194 | sotrastaurin 0.104 | alvocidib -0.162 | Tubastatin A -0.053 | defactinib 0.094 | alisertib 0.104 | gefitinib 0.107

FBXL15 (UniProt Q9H469)
inactive: vemurafenib -0.015 | [2] -0.023 | [3] 0.03 | [4] -0.019 | [5] 0.02 | saracatinib 0.071 | sotrastaurin -0.067 | alvocidib 0.077 | Tubastatin A -0.182 | defactinib 0.198 | [7] 0.106 | encorafenib -0.001 | [8] 0.04 | alisertib -0.09 | gefitinib 0.184

2 consecutive records already listed, for reference:
FBLN1 (UniProt P23142)
inactive: vemurafenib 0.056 | barasertib 0.029 | [3] 0.032 | [4] 0.028 | [5] 0.194 | sotrastaurin 0.104 | alvocidib -0.162 | Tubastatin A -0.053 | defactinib 0.094 | alisertib 0.104 | gefitinib 0.107

FBXL15 (UniProt Q9H469)
inactive: vemurafenib -0.015 | [2] -0.023 | [3] 0.03 | [4] -0.019 | [5] 0.02 | saracatinib 0.071 | sotrastaurin -0.067 | alvocidib 0.077 | Tubastatin A -0.182 | defactinib 0.198 | [7] 0.106 | encorafenib -0.001 | [8] 0.04 | alisertib -0.09 | gefitinib 0.184

Further results.

FBXW8 (UniProt Q8N3Y1)
inactive: vemurafenib -0.052 | [1] 0.015 | barasertib -0.031 | [2] 0.201 | volasertib -0.144 | [3] 0.068 | Tubastatin A 0.232 | [6] -0.119 | defactinib -0.258 | encorafenib -0.07 | [8] 0.016 | alisertib 0.103 | [9] -0.036 | gefitinib -0.384
